In the supplement of paper PMC12595434, “Development of retinoid nuclear receptor pathway antagonists through targeting aldehyde dehydrogenase 1A3” (iScience, 2025):
The list shows a part of the results. Single values of this set are uncertain.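 Many melting curves are irregular; where none melted, Tm was taken as 64 °C.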

Protein sequences, listed by entry. Tags and fused reporters are not part of them. Lines headed by an entry give the natural chain unless they say otherwise; changes in a name come on top.
UniProt Q12797: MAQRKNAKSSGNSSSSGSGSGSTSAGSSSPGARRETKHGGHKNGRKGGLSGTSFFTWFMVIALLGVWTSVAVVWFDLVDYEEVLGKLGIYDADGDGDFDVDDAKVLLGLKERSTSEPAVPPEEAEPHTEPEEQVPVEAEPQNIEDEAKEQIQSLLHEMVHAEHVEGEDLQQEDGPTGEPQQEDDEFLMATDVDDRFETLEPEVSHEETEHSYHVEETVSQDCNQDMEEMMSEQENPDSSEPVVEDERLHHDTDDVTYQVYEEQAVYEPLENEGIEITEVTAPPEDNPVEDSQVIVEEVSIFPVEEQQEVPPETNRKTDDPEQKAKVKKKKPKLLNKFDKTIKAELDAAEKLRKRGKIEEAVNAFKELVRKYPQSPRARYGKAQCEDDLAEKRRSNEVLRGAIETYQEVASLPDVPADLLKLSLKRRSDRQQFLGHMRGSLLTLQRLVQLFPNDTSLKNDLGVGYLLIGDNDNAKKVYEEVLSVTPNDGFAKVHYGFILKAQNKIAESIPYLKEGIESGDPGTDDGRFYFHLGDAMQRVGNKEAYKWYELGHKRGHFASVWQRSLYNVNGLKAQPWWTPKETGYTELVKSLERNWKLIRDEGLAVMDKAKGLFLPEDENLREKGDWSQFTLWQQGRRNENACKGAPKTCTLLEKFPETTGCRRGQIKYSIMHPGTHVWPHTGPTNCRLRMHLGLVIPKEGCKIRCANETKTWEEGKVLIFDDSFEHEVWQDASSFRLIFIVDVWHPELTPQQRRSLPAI
UniProt Q03169: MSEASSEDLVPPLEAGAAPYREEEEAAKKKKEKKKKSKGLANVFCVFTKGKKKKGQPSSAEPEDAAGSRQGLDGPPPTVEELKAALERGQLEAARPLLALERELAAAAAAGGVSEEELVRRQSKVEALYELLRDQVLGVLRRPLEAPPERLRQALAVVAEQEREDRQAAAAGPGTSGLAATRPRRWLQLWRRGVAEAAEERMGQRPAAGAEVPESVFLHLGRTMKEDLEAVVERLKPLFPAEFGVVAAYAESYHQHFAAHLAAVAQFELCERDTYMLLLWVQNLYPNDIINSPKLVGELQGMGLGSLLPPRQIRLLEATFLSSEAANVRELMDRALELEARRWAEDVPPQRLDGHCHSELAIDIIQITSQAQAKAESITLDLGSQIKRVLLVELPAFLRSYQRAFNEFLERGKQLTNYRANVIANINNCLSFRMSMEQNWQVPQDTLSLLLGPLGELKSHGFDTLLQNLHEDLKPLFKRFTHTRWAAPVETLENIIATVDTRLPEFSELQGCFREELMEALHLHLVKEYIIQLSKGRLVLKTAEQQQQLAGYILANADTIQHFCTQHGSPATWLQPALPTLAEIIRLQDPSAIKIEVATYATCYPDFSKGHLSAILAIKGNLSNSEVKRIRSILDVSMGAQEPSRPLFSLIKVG
UniProt P78368: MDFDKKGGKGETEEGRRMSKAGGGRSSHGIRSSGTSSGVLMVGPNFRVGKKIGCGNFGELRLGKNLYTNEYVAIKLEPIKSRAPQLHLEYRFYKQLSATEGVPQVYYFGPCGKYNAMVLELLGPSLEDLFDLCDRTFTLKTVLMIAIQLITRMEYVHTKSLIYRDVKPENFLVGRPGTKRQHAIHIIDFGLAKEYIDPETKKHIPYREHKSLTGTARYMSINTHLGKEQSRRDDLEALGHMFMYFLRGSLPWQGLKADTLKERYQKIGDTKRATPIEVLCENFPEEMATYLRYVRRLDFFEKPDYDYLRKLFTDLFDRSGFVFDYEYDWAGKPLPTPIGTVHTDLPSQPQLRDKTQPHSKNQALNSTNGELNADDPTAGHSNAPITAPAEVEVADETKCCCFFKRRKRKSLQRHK
UniProt Q10472: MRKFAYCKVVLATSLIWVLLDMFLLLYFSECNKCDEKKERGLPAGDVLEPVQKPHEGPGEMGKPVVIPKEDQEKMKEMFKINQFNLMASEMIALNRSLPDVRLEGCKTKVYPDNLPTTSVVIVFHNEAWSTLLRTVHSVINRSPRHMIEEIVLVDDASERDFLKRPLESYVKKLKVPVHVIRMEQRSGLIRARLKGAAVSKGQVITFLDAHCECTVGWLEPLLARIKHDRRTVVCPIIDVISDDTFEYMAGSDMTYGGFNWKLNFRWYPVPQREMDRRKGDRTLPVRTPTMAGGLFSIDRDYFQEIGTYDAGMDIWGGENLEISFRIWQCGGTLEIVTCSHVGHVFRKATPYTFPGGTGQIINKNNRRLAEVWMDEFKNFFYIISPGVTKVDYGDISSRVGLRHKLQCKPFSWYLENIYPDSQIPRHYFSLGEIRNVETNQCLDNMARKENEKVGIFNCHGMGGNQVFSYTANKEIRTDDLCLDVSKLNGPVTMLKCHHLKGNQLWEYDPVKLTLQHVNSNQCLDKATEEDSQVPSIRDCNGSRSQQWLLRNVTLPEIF
UniProt Q01415: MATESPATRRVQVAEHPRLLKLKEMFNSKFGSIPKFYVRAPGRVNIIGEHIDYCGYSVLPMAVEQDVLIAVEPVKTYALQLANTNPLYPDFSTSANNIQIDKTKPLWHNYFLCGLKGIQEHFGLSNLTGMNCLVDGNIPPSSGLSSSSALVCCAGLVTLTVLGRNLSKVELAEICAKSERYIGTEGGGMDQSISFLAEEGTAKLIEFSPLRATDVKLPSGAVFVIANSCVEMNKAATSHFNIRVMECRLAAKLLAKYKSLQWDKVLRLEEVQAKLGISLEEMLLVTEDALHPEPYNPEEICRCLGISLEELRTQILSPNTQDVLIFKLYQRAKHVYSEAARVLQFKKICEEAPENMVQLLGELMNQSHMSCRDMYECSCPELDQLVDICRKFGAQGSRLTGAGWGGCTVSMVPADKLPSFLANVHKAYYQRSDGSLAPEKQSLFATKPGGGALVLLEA
UniProt P78524: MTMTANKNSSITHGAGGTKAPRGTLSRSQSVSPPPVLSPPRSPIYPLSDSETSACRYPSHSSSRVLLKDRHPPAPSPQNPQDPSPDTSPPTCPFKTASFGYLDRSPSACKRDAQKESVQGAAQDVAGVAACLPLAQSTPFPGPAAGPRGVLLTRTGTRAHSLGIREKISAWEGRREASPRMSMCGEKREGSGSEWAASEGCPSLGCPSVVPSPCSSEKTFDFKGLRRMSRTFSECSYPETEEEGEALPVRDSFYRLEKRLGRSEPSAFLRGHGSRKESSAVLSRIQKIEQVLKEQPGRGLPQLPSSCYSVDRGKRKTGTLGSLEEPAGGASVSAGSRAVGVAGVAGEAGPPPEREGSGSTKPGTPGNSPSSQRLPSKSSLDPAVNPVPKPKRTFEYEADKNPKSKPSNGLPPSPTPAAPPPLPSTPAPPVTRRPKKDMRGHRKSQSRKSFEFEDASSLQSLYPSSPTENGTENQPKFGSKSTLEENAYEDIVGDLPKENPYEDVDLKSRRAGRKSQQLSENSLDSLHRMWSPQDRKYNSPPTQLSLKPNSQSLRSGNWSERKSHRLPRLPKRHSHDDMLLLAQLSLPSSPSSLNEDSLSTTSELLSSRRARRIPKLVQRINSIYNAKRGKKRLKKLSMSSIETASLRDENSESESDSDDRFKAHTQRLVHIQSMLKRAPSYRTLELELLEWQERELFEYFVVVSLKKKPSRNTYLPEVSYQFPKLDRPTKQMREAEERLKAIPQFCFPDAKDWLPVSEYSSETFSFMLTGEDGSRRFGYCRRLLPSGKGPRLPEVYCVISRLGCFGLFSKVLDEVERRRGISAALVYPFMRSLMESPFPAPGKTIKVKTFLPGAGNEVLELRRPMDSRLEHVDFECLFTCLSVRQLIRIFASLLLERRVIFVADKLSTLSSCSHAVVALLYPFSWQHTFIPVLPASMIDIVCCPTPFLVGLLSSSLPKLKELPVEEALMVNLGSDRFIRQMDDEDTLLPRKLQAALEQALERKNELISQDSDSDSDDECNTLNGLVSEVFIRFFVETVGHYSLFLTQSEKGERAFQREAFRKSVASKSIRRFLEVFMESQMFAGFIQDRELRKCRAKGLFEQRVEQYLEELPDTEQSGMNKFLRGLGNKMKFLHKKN
UniProt Q13011: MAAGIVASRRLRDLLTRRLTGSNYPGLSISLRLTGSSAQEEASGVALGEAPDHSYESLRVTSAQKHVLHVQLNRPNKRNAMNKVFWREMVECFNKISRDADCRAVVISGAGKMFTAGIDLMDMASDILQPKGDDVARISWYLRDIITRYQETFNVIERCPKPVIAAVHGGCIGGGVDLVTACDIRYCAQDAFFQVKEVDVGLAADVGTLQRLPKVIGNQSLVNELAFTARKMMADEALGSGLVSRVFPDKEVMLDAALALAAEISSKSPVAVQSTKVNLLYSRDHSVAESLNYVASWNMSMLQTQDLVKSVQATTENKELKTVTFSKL
UniProt Q02809: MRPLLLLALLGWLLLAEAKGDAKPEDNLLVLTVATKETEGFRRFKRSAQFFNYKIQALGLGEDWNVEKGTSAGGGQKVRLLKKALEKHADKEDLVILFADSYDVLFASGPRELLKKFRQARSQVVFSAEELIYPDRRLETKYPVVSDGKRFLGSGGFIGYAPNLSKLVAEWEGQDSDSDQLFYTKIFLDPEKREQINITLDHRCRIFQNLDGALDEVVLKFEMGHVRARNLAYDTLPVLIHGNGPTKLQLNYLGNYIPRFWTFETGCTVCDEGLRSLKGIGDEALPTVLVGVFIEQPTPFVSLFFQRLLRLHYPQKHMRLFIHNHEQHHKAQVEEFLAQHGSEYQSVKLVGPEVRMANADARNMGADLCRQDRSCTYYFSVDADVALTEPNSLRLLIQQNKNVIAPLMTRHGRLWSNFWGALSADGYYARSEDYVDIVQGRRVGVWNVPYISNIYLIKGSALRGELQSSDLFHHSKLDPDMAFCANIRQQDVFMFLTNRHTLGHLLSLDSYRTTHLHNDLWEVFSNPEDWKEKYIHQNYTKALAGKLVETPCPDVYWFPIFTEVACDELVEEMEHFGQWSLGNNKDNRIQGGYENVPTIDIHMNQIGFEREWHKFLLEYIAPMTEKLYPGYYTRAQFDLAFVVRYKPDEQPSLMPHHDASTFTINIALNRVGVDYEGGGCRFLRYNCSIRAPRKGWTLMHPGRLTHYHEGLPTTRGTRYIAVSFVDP
UniProt Q0JRZ9: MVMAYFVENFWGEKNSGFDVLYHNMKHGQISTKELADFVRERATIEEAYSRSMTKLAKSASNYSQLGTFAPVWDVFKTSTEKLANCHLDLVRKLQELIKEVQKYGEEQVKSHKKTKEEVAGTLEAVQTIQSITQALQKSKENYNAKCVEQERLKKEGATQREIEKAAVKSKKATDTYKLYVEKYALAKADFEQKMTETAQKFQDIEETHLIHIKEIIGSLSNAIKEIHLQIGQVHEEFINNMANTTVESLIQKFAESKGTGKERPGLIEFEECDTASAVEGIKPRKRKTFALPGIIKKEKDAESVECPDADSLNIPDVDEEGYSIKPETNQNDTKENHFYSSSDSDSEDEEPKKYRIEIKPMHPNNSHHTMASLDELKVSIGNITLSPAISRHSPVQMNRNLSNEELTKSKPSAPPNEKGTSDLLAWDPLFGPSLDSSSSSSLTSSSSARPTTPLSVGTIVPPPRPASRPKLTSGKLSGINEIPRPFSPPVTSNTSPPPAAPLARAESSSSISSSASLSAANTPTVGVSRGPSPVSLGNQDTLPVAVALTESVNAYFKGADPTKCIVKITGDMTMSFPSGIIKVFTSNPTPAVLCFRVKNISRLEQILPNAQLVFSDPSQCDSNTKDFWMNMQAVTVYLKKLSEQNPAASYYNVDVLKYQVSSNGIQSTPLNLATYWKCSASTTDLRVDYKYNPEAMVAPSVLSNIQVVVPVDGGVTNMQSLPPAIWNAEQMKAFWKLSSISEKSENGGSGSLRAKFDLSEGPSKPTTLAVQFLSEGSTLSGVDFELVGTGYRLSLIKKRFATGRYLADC
UniProt P78346: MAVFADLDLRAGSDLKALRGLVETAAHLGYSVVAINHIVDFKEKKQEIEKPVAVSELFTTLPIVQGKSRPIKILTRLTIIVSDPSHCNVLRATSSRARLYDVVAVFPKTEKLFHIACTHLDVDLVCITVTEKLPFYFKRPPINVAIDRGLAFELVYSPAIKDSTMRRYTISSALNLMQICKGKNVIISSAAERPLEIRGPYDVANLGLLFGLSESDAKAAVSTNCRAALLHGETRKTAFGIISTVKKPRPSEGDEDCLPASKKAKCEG
UniProt Q01850: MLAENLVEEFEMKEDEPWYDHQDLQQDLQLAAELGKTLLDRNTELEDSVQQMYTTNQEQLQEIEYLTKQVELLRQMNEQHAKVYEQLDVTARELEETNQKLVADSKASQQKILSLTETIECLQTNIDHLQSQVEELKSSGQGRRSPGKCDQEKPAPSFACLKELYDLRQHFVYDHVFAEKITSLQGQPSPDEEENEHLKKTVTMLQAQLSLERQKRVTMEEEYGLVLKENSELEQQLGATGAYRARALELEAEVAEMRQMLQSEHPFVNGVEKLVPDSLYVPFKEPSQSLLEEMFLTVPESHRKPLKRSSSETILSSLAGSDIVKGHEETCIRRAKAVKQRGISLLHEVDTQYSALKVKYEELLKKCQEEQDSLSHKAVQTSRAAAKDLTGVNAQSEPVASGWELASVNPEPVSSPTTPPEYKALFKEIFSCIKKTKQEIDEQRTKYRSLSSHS

Compound: CCc1cnccc1C(=O)Nc1cc2c(cc1F)NC(=O)CC2
Experiment: melting temperature shift (DMSO Tm minus MBE1-treated Tm) in cellular thermal proteome profiling; higher = less thermal stabilization by MBE1 (negative = stabilized by MBE1)
Settings: A375

Row | Target | melting temperature shift (MBE1 concentration: 100 nM) | melting temperature shift (MBE1 concentration: 1 uM)
1 | CLTC (UniProt Q00610) | 0.574 °C | 0.318 °C
2 | ILF3 (UniProt Q12906) | -0.916 °C | -0.916 °C
3 | BPTF (UniProt Q12830) | -0.711 °C | -0.282 °C
4 | ASPH (UniProt Q12797) | -0.604 °C | -0.577 °C
5 | UniProt P78395 | -0.397 °C | -0.346 °C
6 | P86790 (UniProt P86791) | 1.43 °C | 0.403 °C
7 | UniProt Q05639 | -0.315 °C | -0.423 °C
8 | FAAP100 (UniProt Q0VG06) | 1.06 °C | 0.318 °C
9 | CSTF1 (UniProt Q05048) | -2.03 °C | -2.29 °C
10 | TNFAIP2 (UniProt Q03169) | 0.122 °C | 0.519 °C
11 | LMAN2 (UniProt Q12907) | 0.107 °C | -0.255 °C
12 | VLDLR (UniProt P98155) | -0.653 °C | -2.11 °C
13 | PPID (UniProt Q08752) | -0.565 °C | -0.282 °C
14 | UniProt Q12968 | -0.122 °C | -0.331 °C
15 | GRSF1 (UniProt Q12849) | -0.63 °C | -0.169 °C
16 | COG7 (UniProt P83436) | -1.45 °C | -1.06 °C
17 | MRPS15 (UniProt P82914) | 0.91 °C | 1.34 °C
18 | UniProt P98088 | -3.84 °C | -1.61 °C
19 | UniProt P78368 | -0.376 °C | 0.838 °C
20 | EIF4G2 (UniProt P78344) | -0.624 °C | -0.147 °C
21 | GALNT1 (UniProt Q10472) | -0.657 °C | -0.483 °C
22 | ACY1 (UniProt Q03154) | -3.37 °C | -2.4 °C
23 | VAC14 (UniProt Q08AM6) | -0.181 °C | -0.617 °C
24 | EIF4G1 (UniProt Q04637) | -0.79 °C | -0.55 °C

Row | Target | melting temperature shift (MBE1 concentration: 100 nM) | melting temperature shift (MBE1 concentration: 1 uM)
25 | OTUD4 (UniProt Q01804) | 0.482 °C | 0.0611 °C
26 | PFKP (UniProt Q01813) | -1.09 °C | -1.09 °C
27 | UniProt Q03188 | -0.0604 °C | 0.664 °C
28 | GALK2 (UniProt Q01415) | -0.256 °C | 0.629 °C
29 | UniProt Q12872 | -1.32 °C | -0.955 °C
30 | UniProt P78524 | 1.23 °C | 0.659 °C
31 | UniProt Q13043 | -0.89 °C | -0.581 °C
32 | MRPS11 (UniProt P82912) | -1.94 °C | -2.28 °C
33 | SRPK2 (UniProt P78362) | -1.15 °C | -1.73 °C
34 | ECH1 (UniProt Q13011) | -1.15 °C | -0.674 °C
35 | TRIM26 (UniProt Q12899) | -2.81 °C | 0.202 °C
36 | LRP1 (UniProt Q07954) | -0.989 °C | -0.0794 °C
37 | SLFN5 (UniProt Q08AF3) | 0.104 °C | 0.378 °C
38 | PLOD1 (UniProt Q02809) | -0.919 °C | 0.168 °C
39 | FCHO2 (UniProt Q0JRZ9) | 0.818 °C | 0.0488 °C
40 | RPL24 (UniProt P83731) | -1.52 °C | 0.611 °C
41 | RPP30 (UniProt P78346) | -6.86 °C | 2.43 °C
42 | CBX1 (UniProt P83916) | -0.427 °C | -0.0183 °C
43 | UniProt P78540 | -0.774 °C | 0 °C
44 | CDR2 (UniProt Q01850) | 0.216 °C | 0.0612 °C
45 | REL (UniProt Q04864) | 0.214 °C | 0.586 °C
46 | PTPN12 (UniProt Q05209) | -0.358 °C | -0.494 °C
47 | HMGCS1 (UniProt Q01581) | -0.63 °C | 0.402 °C

Copied from above, entries 2–3
Row | Target | melting temperature shift (MBE1 concentration: 100 nM) | melting temperature shift (MBE1 concentration: 1 uM)
2 | ILF3 (UniProt Q12906) | -0.916 °C | -0.916 °C
3 | BPTF (UniProt Q12830) | -0.711 °C | -0.282 °C
